{
  "sequences": {"note": "Amino acid sequences for entries named in this document (tags omitted). A change or cut given only in a name is not applied to a line headed by its entry. Chains listed by the source or under a name are the forms on record and can include a tag or linker. Residues count along the entry.", "TRPV1 construct used for cryo-EM (pore turret residues 604-626 deleted) (O35433, form named)": "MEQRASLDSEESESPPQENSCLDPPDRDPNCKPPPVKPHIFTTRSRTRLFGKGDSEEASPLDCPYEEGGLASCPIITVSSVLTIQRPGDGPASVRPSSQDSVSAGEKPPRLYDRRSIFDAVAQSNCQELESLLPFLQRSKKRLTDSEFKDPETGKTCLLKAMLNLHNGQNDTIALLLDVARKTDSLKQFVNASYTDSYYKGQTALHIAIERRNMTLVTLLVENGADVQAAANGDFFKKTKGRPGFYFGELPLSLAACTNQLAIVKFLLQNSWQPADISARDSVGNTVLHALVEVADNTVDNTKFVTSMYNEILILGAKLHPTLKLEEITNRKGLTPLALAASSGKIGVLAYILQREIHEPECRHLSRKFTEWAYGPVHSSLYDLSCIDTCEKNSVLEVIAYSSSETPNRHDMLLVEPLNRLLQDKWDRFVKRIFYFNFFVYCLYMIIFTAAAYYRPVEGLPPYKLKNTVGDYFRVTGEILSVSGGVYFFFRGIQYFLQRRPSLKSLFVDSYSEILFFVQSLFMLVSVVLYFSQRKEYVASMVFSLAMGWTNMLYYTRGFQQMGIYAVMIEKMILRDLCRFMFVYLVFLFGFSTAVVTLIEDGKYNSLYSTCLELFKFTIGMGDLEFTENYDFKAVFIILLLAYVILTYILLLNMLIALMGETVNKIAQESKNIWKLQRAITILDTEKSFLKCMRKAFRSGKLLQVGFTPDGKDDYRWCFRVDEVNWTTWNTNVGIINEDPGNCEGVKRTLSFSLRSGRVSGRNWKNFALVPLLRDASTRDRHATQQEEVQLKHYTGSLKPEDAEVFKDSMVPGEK"},
  "source": "paper PMC4764579",
  "about": "“Structural insights into the mechanism of activation of the TRPV1 channel by a membrane-bound tarantula toxin” (eLife, 2016)",
  "binders": {"B1": {"name": "double-knot toxin (DkTx) as bound to TRPV1 in the cryo-EM sample (protein)", "chain": "DCAKEGEVCSWGKKCCDLDNFYCPMEFIPHCKKYKPYVPVTTNCAKEGEVCGWGSKCCHGLDCPLAFIPYCEKYR"}},
  "biological_target": "TRPV1 construct used for cryo-EM (pore turret residues 604-626 deleted) (rat) (UniProt O35433)",
  "test": "cryo-EM structure; both purified",
  "note": "No constants are given. Whether binding was seen depends on the method and setting. Some results given as binding are weak or reduced against the parent protein; the word gives no strength.",
  "data": [
    {"binder": "B1", "values": [
      {"measurement": "binding", "value": "binds"}
    ]}
  ]
}
